# Where “and” joins values, the source holds several entries; their conditions need not be identical. Equal values may be shown once. The inconclusive results got no clear call from the source; some entries with a clear call stand among them for comparison. For some assays here: A potency beside an inconclusive call is a rough fit, not a confirmed value. Calls of active or inactive are those of the source. Rule for the calls: active = hit-call score of the fitted dose curve at least 0.9, where 1 is the maximum; inconclusive = response in the unintended direction; inactive = score below 0.9.
# Sequences of proteins named here, by UniProt entry; tags and fusion partners are left off. A change or cut given only in a name is not applied to a line headed by its entry.
# UniProt Q96RI1: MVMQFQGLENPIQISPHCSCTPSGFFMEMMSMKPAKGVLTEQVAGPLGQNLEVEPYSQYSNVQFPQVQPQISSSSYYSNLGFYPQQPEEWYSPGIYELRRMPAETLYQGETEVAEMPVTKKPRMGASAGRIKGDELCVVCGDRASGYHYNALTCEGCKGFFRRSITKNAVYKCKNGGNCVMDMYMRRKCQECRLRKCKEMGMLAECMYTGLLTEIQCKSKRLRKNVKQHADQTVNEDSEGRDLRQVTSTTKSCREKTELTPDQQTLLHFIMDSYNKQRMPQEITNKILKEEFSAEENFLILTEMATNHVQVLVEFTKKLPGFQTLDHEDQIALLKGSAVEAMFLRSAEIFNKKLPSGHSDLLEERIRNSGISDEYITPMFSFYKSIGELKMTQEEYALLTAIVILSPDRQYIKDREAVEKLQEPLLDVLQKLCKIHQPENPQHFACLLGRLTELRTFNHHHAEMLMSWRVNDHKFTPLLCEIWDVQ
# UniProt Q03181: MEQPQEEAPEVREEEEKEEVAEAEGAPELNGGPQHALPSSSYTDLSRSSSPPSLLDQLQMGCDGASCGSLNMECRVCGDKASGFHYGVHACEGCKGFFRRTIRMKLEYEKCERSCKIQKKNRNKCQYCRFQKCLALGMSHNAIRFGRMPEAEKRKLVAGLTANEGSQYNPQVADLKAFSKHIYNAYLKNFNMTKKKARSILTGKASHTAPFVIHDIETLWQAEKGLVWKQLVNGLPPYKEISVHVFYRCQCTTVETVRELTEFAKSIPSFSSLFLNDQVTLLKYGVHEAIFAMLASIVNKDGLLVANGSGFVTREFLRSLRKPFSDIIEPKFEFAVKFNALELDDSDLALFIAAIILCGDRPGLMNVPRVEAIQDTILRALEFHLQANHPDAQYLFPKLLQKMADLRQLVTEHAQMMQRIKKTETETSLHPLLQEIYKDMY
# UniProt P37231: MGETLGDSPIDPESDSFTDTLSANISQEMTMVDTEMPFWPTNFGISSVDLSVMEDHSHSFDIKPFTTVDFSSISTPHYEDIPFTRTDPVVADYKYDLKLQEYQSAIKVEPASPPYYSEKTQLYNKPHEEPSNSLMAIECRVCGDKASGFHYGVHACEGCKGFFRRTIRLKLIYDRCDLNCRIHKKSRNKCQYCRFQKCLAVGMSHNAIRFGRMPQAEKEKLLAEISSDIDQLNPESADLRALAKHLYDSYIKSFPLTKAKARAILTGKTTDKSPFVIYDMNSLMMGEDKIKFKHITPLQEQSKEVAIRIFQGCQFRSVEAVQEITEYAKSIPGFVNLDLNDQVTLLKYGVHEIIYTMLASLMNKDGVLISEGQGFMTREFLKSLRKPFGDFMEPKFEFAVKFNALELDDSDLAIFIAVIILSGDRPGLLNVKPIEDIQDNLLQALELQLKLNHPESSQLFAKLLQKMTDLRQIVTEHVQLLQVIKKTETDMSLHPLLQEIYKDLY
# UniProt Q01717: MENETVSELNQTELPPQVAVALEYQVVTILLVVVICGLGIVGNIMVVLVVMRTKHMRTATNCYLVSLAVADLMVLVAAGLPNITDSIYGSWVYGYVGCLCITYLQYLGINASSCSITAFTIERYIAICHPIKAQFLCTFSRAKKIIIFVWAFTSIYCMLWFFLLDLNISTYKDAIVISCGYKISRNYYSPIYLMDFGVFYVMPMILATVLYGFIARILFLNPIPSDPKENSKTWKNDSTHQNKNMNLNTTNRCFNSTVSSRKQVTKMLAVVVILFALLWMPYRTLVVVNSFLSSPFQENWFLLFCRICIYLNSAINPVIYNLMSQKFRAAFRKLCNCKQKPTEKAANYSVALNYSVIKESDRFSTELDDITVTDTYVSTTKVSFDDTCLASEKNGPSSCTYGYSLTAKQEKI
# UniProt P19793: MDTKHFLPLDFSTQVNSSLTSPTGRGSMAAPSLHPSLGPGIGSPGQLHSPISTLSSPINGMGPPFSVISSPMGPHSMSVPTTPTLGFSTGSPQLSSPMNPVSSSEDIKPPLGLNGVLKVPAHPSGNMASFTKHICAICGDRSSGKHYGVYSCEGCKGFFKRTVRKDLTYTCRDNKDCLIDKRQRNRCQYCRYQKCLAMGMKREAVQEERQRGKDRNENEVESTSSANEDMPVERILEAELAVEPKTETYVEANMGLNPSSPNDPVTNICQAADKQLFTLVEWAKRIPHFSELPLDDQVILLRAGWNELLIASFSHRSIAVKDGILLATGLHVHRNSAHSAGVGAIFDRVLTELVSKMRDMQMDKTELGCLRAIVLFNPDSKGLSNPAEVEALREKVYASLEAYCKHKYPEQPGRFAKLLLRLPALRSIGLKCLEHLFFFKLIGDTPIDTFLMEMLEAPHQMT
# UniProt P04637, whole entry, looked up: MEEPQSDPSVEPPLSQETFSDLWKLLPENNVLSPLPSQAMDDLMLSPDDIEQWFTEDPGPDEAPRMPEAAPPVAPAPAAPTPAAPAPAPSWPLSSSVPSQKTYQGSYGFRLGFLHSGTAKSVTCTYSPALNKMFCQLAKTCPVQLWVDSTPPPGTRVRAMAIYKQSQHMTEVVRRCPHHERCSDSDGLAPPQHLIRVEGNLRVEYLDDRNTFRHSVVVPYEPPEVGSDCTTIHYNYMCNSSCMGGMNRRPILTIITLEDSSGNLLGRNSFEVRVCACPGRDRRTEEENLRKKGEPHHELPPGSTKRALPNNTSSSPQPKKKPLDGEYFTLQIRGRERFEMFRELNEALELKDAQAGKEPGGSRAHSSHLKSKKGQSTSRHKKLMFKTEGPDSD
# UniProt P04150: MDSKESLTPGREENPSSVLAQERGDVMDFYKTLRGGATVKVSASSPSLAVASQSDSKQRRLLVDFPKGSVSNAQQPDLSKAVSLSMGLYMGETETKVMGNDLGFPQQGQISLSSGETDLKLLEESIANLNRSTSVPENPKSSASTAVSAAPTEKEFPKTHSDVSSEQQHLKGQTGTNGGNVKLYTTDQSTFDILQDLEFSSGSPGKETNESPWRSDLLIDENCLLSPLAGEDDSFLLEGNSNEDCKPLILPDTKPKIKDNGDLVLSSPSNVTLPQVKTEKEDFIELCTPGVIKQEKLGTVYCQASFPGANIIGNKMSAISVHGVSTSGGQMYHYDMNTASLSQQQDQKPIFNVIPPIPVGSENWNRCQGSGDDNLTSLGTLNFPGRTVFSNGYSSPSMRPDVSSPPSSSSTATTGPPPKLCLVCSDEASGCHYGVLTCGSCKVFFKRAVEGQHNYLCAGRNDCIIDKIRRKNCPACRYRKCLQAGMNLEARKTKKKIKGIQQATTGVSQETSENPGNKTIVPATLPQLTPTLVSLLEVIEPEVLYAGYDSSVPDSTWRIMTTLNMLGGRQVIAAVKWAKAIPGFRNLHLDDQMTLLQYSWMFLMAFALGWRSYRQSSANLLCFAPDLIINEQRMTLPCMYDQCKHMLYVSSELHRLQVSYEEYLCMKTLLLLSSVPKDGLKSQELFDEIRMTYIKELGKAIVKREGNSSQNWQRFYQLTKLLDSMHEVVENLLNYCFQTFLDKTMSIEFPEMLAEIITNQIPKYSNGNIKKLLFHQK
# UniProt O75469: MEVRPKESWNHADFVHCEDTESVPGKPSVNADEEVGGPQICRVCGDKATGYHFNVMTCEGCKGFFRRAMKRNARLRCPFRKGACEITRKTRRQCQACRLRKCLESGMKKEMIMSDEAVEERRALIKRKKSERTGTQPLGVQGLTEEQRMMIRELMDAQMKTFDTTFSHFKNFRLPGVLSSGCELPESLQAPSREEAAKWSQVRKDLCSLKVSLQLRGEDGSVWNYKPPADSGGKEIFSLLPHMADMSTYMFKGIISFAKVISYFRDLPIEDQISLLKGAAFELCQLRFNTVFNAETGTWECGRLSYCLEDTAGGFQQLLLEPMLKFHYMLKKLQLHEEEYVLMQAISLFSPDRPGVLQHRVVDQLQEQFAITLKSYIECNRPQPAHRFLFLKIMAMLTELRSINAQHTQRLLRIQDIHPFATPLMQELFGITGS
# UniProt P11473: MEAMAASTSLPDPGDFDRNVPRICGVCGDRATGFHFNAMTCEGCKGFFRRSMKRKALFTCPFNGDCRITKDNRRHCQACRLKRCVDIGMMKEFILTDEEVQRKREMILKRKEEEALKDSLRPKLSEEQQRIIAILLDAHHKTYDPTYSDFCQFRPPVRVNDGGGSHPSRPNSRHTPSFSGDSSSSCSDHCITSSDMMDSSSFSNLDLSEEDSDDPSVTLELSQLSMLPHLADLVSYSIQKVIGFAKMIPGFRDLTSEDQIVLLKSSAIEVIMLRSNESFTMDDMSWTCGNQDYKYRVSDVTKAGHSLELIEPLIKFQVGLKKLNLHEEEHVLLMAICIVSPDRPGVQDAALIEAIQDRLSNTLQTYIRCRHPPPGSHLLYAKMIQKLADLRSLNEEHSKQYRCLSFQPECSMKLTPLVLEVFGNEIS
# How the values were obtained:
# [1] = biological target: Bile acid receptor (Homo sapiens) (UniProt Q96RI1); assay: ATG_FXR_TRANS: Attagene TRANS-FACTORIAL HepG2 Assay for Farnesoid X Receptor (FXR) (AID 2282979); conditions: HepG2 Attagene TRANS FXR-GAL4 reporter transcription;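 note: hits raise reporter mRNA above DMSO so AC50 marks FXR activation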
# In short: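 HepG2 cells were transiently transfected with GAL4-UAS reporters driven by chimeric NR-Gal4 proteins and dosed for 24 h. Reporter mRNA was quantified by RT-PCR, fluorescent labelling, HpaI digestion and capillary electrophoresis, with gain of signal scored versus DMSO.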
# [2] = ATG_M_06_TRANS: Attagene TRANS-FACTORIAL HepG2 Assay for M06 Transcription Factor (Internal Marker) (AID 2282983); conditions: HepG2 Attagene TRANS M06 internal marker reporter;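 for AC50: potency for rise in reporter mRNA above DMSO baseline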;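 for outcome: reporter transcript level by RT-PCR then capillary electrophoresis fluorescence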
# In short: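 HepG2 cells transiently transfected with GAL4-UAS multiple reporter units, dosed 24 h. Reporter RNA reverse-transcribed, PCR-amplified, 6-FAM-labeled, HpaI-digested and quantified by capillary electrophoresis; this internal-marker signal fitted upward relative to DMSO.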
# [3] = biological target: human Peroxisome Proliferator-activated Receptor delta (PPARd), PPARD (gene 5467) (UniProt Q03181); assay: ATG_PPARd_TRANS: Attagene TRANS-FACTORIAL HepG2 Assay for human Peroxisome Proliferator-activated Receptor delta (PPARd) (AID 2283002)
# In short: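 HepG2 cells transiently transfected with GAL4-UAS multiplexed reporter units driven by exogenous chimeric NR-GAL4 proteins; 24 h compound exposure. Reporter mRNA measured by RT-PCR, 6-FAM primer extension, HpaI digestion and capillary electrophoresis; gain of signal fitted relative to DMSO.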
# [4] = biological target: Peroxisome proliferator-activated receptor gamma (Homo sapiens) (UniProt P37231); assay: ATG_PPARg_TRANS: Attagene TRANS-FACTORIAL HepG2 Assay for human Peroxisome Proliferator-activated Receptor-gamma (PPARg) (AID 2283007)
# In short: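 HepG2 cells transiently transfected with multiplexed GAL4-UAS reporter units and exogenous chimeric NR-Gal4 proteins; reporter mRNA quantified after 24 h compound exposure by RT-PCR, fluorescent labelling, HpaI digestion and capillary electrophoresis; gain-of-signal fitted versus DMSO baseline.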
# [5] = biological target: rat Thyrotropin Releasing Hormone Receptor (TRH), Trhr (gene 25570) (UniProt Q01717); assay: NVS_GPCR_rTRH: NovaScreen (NVS) G Protein-Coupled Receptor Assay for rat Thyrotropin Releasing Hormone Receptor (TRH) (AID 2283329);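 note: hit means lower bound tracer signal versus DMSO baseline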
# In short: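 Rat forebrain membranes; radioligand displacement at TRH receptor by filter-based scintillation counting, read 4 h after dosing. Duplicate single-point screen at 25 uM, actives rerun in concentration series; loss of signal relative to DMSO.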
# [6] = biological target: Retinoic acid receptor RXR-alpha (Homo sapiens) (UniProt P19793); assay: OT_NURR1_NURR1RXRa_1440: Odyssey Thera (OT) 24-hour HEK293T Protein Complementation Assay for Nurr1/retinoid X receptor (RXR) (AID 2283386)
# In short: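 HEK293T cells were dosed with compound and read 24 h later by fluorescence intensity in a protein-fragment complementation format, where Nurr1–RXRα interaction reconstitutes a split reporter. Activity was fitted as gain of signal relative to DMSO baseline.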
# [7] = biological target: Cellular tumor antigen p53 (Homo sapiens) (UniProt P04637); assay: TOX21_p53_BLA_p2_ratio: Tox21 HCT-116 p53 Agonism Beta-lactamase Assay, Ratio, Phase 2 (AID 2283592)
# In short: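 HCT-116 cells with p53-responsive beta-lactamase reporter, 4000 cells/well, preincubated 5 h, then compound in DMSO (217-fold dilution) for 16 h at 37C. CCF4-AM substrate 2 h at room temperature; 460/530 nm emission ratio fitted upward versus DMSO.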
# [8] = biological target: Glucocorticoid receptor (Homo sapiens) (UniProt P04150); assay: ATG_GR_TRANS: Attagene TRANS-FACTORIAL HepG2 Assay for human Glucocorticoid Receptor (GR) (AID 2282978); conditions: HepG2 Attagene TRANS GR reporter, mRNA transcription;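 note: activators score as hits since higher reporter transcript over DMSO is fitted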
# In short: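 HepG2 cells transiently transfected with multiplexed reporter units in which chimeric NR-GAL4 proteins drive GAL4-UAS reporters; 24 h compound exposure. Reporter mRNA measured by RT-PCR, 6-FAM labelling, HpaI digestion and capillary electrophoresis; gain-of-signal fitted versus DMSO.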
# [9] = biological target: Cellular tumor antigen p53 (Homo sapiens) (UniProt P04637); assay: TOX21_p53_BLA_p3_ratio: Tox21 HCT-116 p53 Agonism Beta-lactamase Assay, Ratio, Phase 3 (AID 2283596)
# In short: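 HCT116 p53-bla cells (4000/well) given compound in DMSO (217-fold dilution) after 5 h, incubated 16 h at 37C. CCF4-AM substrate 2 h at room temperature; 460/530 nm emission ratio, gain fitted against DMSO.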
# [10] = biological target: Cellular tumor antigen p53 (Homo sapiens) (UniProt P04637); assay: TOX21_p53_BLA_p4_ratio: Tox21 HCT-116 p53 Agonism Beta-lactamase Assay, Ratio, Phase 4 (AID 2283601)
# In short: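 HCT-116 p53 beta-lactamase reporter cells (4000/well) preincubated 5 h, then compound (217-fold dilution of DMSO stock) for 16 h at 37C. CCF4-AM substrate added 2 h at room temperature; 460/530 nm emission ratio fitted upward versus DMSO.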
# [11] = ATG_M_32_TRANS: Attagene TRANS-FACTORIAL HepG2 Assay for M32 Transcription Factor (Internal Marker) (AID 2282984); conditions: HepG2 Attagene TRANS M32 internal marker reporter;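 note: transcript level of a background control reporter unit measured by RT-PCR and capillary electrophoresis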
# In short: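 Capillary electrophoresis of 6-FAM-labelled reporter fragments gives the signal; data fitted for gain over DMSO negative control. Source: HepG2 cells bearing transient multiple reporter transcription units, 24 h exposure.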
# [12] = biological target: Nuclear receptor subfamily 1 group I member 2 (Homo sapiens) (UniProt O75469); assay: ATG_PXR_TRANS: Attagene TRANS-FACTORIAL HepG2 Assay for human Pregnane X Receptor (PXR) (AID 2283008)
# In short: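 HepG2 cells transiently transfected with GAL4-UAS reporter units and PXR-Gal4 chimera, exposed 24 h. Reporter mRNA quantified by RT-PCR, fluorescent labelling, HpaI digestion and capillary electrophoresis; gain of signal vs DMSO.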
# [13] = biological target: human Vitamin D Receptor (VDR), VDR (gene 7421) (UniProt P11473); assay: ATG_VDR_TRANS: Attagene TRANS-FACTORIAL HepG2 Assay for human Vitamin D Receptor (VDR) (AID 2283022)
# In short: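 HepG2 cells were transiently transfected with GAL4-UAS reporter units and a chimeric VDR-Gal4 construct, then dosed for 24 hours. Reporter mRNA was quantified by RT-PCR, fluorescent labeling, HpaI digestion and capillary electrophoresis; gain of signal analysed vs DMSO.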
# [14] = CCTE_Harrill_HTTr_CellCount_MCF7: CCTE's Cell Proliferation Assessment for the High-Throughput Transcriptomics (HTTr) Platform, Harrill Lab (AID 2284012);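 note: cells exposed to compound for six hours; intended direction is loss of nuclei count meaning fewer cells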
# In short: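 MCF-7 cells were exposed for 6 h to an eight-point dilution series; Hoechst-labeled nuclei were counted by high content imaging. Curves were fitted bidirectionally against DMSO as negative control and baseline, with signal loss indicating reduced cell count.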
# [15] = ATG_XTT_Cytotoxicity: Cytotoxicity Assessment in the Attagene TRANS-FACTORIAL HepG2 Assay (AID 2283584);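 note: XTT signal for cell number as viability in transfected HepG2 cells; cells exposed to compound for 24 h before reading; active means loss of viability signal versus DMSO baseline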
# In short: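 HepG2 cells transiently transfected with GAL4-UAS multiple reporter units, dosed 24 h; cytotoxicity read by XTT as loss of signal versus DMSO baseline.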
# [16] = biological target: Cellular tumor antigen p53 (Homo sapiens) (UniProt P04637); assay: TOX21_p53_BLA_p5_ratio: Tox21 HCT-116 p53 Agonism Beta-lactamase Assay, Ratio, Phase 5 (AID 2283599)
# In short: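 HCT-116 p53-bla cells (4000/well) plated 5 h, dosed with compound (217-fold DMSO dilution) for 16 h at 37 C; CCF4-AM substrate 2 h at room temperature. Activity is the 460/530 nm emission ratio (405 nm excitation), fitted in gain-of-signal direction versus DMSO.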
# [17] = ACEA_ER_AUC_viability: ACEA Biosciences xCELLigence Real-Time Cell Analysis on Estrogen Receptor Agonism for Viability (AID 2283782);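 note: continuous compound exposure with impedance area under curve over 80 h; hit means loss of impedance signal meaning reduced cell growth or viability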
# In short: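 T47D cells preconditioned in phenol red-free RPMI with charcoal-stripped FBS, then dosed with 8-point 1:4 series from 100 uM (up to 0.5% DMSO). Impedance monitored up to ~80 h; area-under-curve loss versus DMSO taken as viability.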
# [18] = ACEA_AR_agonist_AUC_viability: ACEA Biosciences xCELLigence Real-Time Cell Analysis on Androgen Receptor Agonism for Viability (AID 2283775);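 note: viability read 80 hours after compound addition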
# In short: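 Read-out is area under the impedance curve at 80 h post-dose in 22Rv1 cells, with DMSO as baseline and signal loss taken as reduced viability. Compounds ran in duplicate from 100 uM final.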
# [19] = biological target: Retinoic acid receptor RXR-alpha (Homo sapiens) (UniProt P19793); assay: OT_NURR1_NURR1RXRa_0480: Odyssey Thera (OT) 8-hour HEK293T Protein Complementation Assay for Nurr1/retinoid X receptor (RXR) (AID 2283385)
# In short: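 HEK293T cells expressing Nurr1 and RXRα fused to reporter fragments were dosed with compound for 8 hours. Complex formation was read as fluorescence intensity and analysed as gain of signal against DMSO as baseline.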
smiles,measurement,setting,value
Cc1cc(Cl)ccc1O,outcome,[1],inactive
same,AC50,[2],inconclusive: 6.61 µM
same,AC50,[3],inconclusive: 4.29 µM
same,outcome,[4],inactive
same,AC50,[5],inconclusive: 1.75 µM
same,AC50,[6],inconclusive: 50 µM
same,AC50,[7],inconclusive: 45 µM
Cl[C@H]1OCCO[C@@H]1Cl,AC50,[8],inconclusive: 30.1 µM
same,AC50,[1],inconclusive: 26.6 µM
same,AC50,[3],inconclusive: 100 µM
same,AC50,[7],inconclusive: 46.1 µM
same,outcome,[7],inactive
same,AC50,[9],inconclusive: 85.2 µM
same,AC50,[10],inconclusive: 46.1 µM
O=[N+]([O-])c1c2ccccc2cc2ccccc12,AC50,[8],inconclusive: 75.1 µM
same,outcome,[2],inactive
same,outcome,[11],inactive
same,AC50,[12],active: 4.7 µM
same,outcome,[9],inactive
c1cc[c]([Sb]([c]2ccccc2)[c]2ccccc2)cc1,outcome,[2],inactive
same,AC50,[4],active: 23.5 µM
same,AC50,[12],active: 8.18 µM
same,outcome,[13],inactive
Cc1cc(C(C)(C)c2ccc(O)c(C)c2)ccc1O,AC50,[1],active: 4.72 µM
same,outcome,[2],inactive
same,outcome,[3],inactive
same,AC50,[7],active: 30.2 µM
same,outcome,[9],inactive
same,AC50,[10],active: 41.9 µM
same,outcome,[14],inactive
ClCc1cccnc1,AC50,[8],inconclusive: 25.9 µM
same,outcome,[11],inactive
same,outcome,[13],inactive
same,AC50,[15],inconclusive: 0.0436 µM
same,outcome,[16],inactive
same,AC50,[10],inconclusive: 85.1 µM and inconclusive: 45.4 µM
same,AC50,[17],active: 50 µM
CCOC(=O)OC1=C(c2cc(C)ccc2C)C(=O)NC12CCC(OC)CC2 (stereo not drawn),outcome,[1],inactive
same,outcome,[11],inactive
same,outcome,[3],inactive
same,outcome,[12],inactive
same,AC50,[13],inconclusive: 100 µM
same,AC50,[7],active: 46.1 µM
same,AC50,[9],active: 52.6 µM
same,AC50,[16],active: 26.3 µM
same,AC50,[10],active: 54.7 µM
CCOP(=O)(SC(C)CC)N1CCSC1=O (stereo not drawn),AC50,[2],inconclusive: 0.154 µM
same,outcome,[11],inactive
same,AC50,[3],inconclusive: 50 µM
same,outcome,[13],inactive
same,AC50,[6],inconclusive: 50 µM
same,outcome,[6],inactive
same,AC50,[18],inconclusive: 9.92 µM
same,AC50,[17],inconclusive: 0.0238 µM
same,AC50,[14],inconclusive: 50 µM
O=C(OC1CCCCC1)c1ccccc1C(=O)OC1CCCCC1,outcome,[5],inactive
same,AC50,[19],active: 44.6 µM
same,AC50,[10],inconclusive: 15.6 µM
same,AC50,[17],inconclusive: 75.9 µM
same,AC50,[14],inconclusive: 50 µM
[Cl][Sb]([Cl])[Cl],outcome,[2],inactive
same,AC50,[12],inconclusive: 31.7 µM
same,outcome,[9],inactive
Nc1c(Cl)c(Cl)c(Cl)c(Cl)c1Cl,outcome,[3],inactive
same,outcome,[4],inactive
same,AC50,[12],active: 13.3 µM
same,outcome,[13],inactive
same,AC50,[15],inconclusive: 100 µM

# An excerpt of these results, with tabs.
smiles	measurement	setting	value
CCOC(=O)OC1=C(c2cc(C)ccc2C)C(=O)NC12CCC(OC)CC2 (stereo not drawn)	outcome	[12]	inactive
same	AC50	[13]	inconclusive: 100 µM
same	AC50	[7]	active: 46.1 µM
same	AC50	[9]	active: 52.6 µM
same	AC50	[16]	active: 26.3 µM
same	AC50	[10]	active: 54.7 µM
CCOP(=O)(SC(C)CC)N1CCSC1=O (stereo not drawn)	AC50	[2]	inconclusive: 0.154 µM
same	outcome	[11]	inactive
same	AC50	[3]	inconclusive: 50 µM
same	outcome	[13]	inactive
same	AC50	[6]	inconclusive: 50 µM
same	outcome	[6]	inactive
same	AC50	[18]	inconclusive: 9.92 µM
same	AC50	[17]	inconclusive: 0.0238 µM
same	AC50	[14]	inconclusive: 50 µM
